PMC10709454
These are yes or no findings as the source states them, for the method shown. Binding seen in cells or lysates may run through a third protein. Some results given as binding are weak or reduced against the parent protein; the word gives no strength.

Sequences of proteins named here, by UniProt entry; tags and fusion partners are left off.
UniProt P45974: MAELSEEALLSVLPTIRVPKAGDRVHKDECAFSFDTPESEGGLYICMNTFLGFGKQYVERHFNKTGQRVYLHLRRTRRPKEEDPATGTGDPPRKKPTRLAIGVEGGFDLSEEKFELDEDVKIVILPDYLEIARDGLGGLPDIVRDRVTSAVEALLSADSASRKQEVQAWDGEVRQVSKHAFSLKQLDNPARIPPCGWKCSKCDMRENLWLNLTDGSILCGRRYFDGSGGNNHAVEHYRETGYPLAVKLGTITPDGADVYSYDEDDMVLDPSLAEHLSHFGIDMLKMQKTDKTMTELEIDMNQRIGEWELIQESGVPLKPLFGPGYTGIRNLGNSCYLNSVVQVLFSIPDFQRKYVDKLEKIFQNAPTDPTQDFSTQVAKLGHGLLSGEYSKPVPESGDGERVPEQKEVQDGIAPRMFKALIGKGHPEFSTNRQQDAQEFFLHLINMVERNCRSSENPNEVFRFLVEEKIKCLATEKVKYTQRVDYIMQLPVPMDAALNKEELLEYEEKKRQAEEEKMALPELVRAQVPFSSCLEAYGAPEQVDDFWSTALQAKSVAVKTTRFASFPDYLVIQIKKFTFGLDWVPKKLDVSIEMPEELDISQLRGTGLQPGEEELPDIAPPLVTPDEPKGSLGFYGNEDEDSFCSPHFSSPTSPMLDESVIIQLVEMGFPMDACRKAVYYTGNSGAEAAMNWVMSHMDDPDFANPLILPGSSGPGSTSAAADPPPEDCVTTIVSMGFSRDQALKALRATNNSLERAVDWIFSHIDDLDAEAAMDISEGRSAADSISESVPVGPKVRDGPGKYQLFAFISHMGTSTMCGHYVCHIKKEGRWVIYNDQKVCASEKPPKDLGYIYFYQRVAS

Biological target: T1, common cytokine receptor γ chain (human (endogenous in Jurkat)) (UniProt P31785)
T1 sequence: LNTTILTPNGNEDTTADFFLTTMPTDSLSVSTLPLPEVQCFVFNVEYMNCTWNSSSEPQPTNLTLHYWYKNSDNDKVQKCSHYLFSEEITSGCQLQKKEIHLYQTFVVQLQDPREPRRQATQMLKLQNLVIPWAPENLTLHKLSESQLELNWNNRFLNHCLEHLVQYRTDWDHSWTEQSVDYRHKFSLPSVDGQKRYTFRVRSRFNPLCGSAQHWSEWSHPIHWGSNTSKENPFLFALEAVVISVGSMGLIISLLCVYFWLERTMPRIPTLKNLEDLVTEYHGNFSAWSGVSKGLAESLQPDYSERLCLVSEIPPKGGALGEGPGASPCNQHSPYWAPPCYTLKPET
Test: co-IP; endogenous proteins; Jurkat-PD-1 cells stimulated with PHA (50 or 150 ng/mL) in the presence of plate-bound hPD-L1-Fc fusion protein (or control hIgG1, 2 μg/mL) for the indicated times; NP-40 lysis buffer, Protein-G Sepharose, 4 °C for 3 h, washed with lysis buffer containing 500 mM NaCl …

USP5 (from UniProt P45974 1-858) (enzyme)
binding: binds
